The record followed here is PubChem BioAssay AID2685 (National Center for Advancing Translational Sciences (NCATS), 2010).

The nature of this assay: qHTS Assay for Lipid Storage Modulators in Drosophila S3 Cells.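 On cell number change: cells counted by Cell Tracker Red CMTPX staining in the red channel.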 The conditions noted are these: BODIPY lipid droplet fluorescence, 18-24 h; for cell number change: measured here: cell count max response, cells fed with added oleic acid. An outline of the steps: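 Laser-scanning cytometry quantifies lipid droplet accumulation (500–530 nm total intensity; droplet/cell object ratio) in oleic acid-fed (400 uM added) Drosophila S3 cells treated with a concentration series. 20 uM Triacsin C defined 100% inhibition.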

[1] abbreviates: measured here: cell number channel AC50, cells fed with added oleic acid.
Where [2] appears, read: measured here: lipid fluorescence (Fed channel) AC50, cells fed with added oleic acid.

This is one part of the list. Shown are side measurements of this screen, not its main read-out; they come without a call. Compounds called inactive in the main read-out are mostly missing here. Words in brackets tell the shape of the fitted curve; partial curves, single points and poor fits give uncertain potencies.

For the compound `CCc1ccc(NC(=O)C2CCN(S(=O)(=O)c3c(C)noc3/C=C/N(C)C)CC2)cc1`, the cell number change was 9.91%. In addition, the concentration at half-maximal activity (AC50) under setting [1] is 4.11 µM [rising, partial curve]. For the same compound, the AC50 under setting [2] was 18.4 µM [rising, partial curve].
In the case of `COCC(=O)N1CCC(Oc2ccc(C(=O)NC3Cc4ccccc4C3)cc2)CC1`, the cell number change was 25.4%. Also, the AC50 under setting [2] was 3.26 µM [rising, full curve].
On to `O=C(c1ccco1)N1CCN(c2nc3ccccc3n3nnnc23)CC1`, for which the AC50 reads like this: under setting [1], 0.82 µM [rising, partial curve]; under setting [2], 1.46 µM [rising, full curve].
Take `Cc1ccc2c(c1)nnn2C1CCN(S(=O)(=O)c2ccc(C(=O)N(C)C3CCCCC3)cc2)CC1`: the cell number change amounted to 63.4%. The half-maximal activity concentration (AC50) under setting [1] was 5.17 µM [rising, partial curve]. Also, under setting [2], the concentration at half-maximal activity (AC50) is 1.64 µM [rising, full curve].
As to `O=C(CSc1ccccn1)Nc1ccc(Cl)c([N+](=O)[O-])c1`, the cell number change is -21.8%.
For `Cc1ccc(CNC(=O)c2ccc(CS(=O)Cc3ccccc3Cl)o2)cc1` (configuration not stated), the cell number change came to 27%. For the same compound, under setting [2], the AC50 was 3.66 µM [rising, single point].
Turning to `COc1cc(Cl)c(C)cc1NC(=O)COC(=O)c1cc[n+]([O-])cc1`, the cell number change was determined as 32.7%.
For `O=C(c1cccc(OC2CCN(C3CCCC3)CC2)c1)N1CCCCCCC1`, the cell number change is -6.01%. In addition, the half-maximal activity concentration (AC50) under setting [2] was 0.0058 µM [falling, full curve, poor fit].
Consider `N#Cc1c(NC(=O)CSc2nc(N)cc(=O)[nH]2)sc2c1CCCC2`, for which, under setting [2], the AC50 was 7.31 µM [rising, partial curve, poor fit].
The same measure, in the same setting: in the case of `C=CCn1c(SCC(=O)NC2CCCC2)nc2c([nH]c3ccccc32)c1=O` it was 6.51 µM [rising, single point].
On to `COCCOC(=O)c1c(NC(=O)CN2CCOCC2)sc(C(N)=O)c1C`, for which the cell number change was 8.62%. The AC50 under setting [2] is 2.91 µM [rising, single point].
For the compound `CC(C)(C)c1ccc(CNC(=O)C2CCCN2C(=O)Nc2ccccc2)cc1` (configuration not stated), under setting [1], the AC50 was 6.51 µM [rising, single point].
For the compound `CSc1ncccc1C(=O)N1CCN(S(=O)(=O)c2ccccc2)CC1`, the cell number change was -16.2%.
Regarding `Fc1ccccc1NC(=S)Nc1cccnc1`, the cell number change was -2.77%. Besides, the AC50 under setting [1] was 0.326 µM [falling, partial curve, poor fit].
As for `COc1cccc(/C=N/n2c(=S)n(C)c3ccccc32)c1OC`, the cell number change was -6.11%. Besides, the AC50 under setting [1] is 2.06 µM [rising, partial curve]. Also, the AC50 under setting [2] was 2.91 µM [rising, partial curve].
Turning to `COc1ccc(C(=O)N2CCN(CCNC(=O)C(=O)Nc3ccc(F)cc3)CC2)cc1`, the cell number change is -1.32%.
Regarding `CN1OC(c2ccccc2)=C(CO)C1c1ccccc1` (configuration not stated), the cell number change came to 40.4%. Besides, the AC50 under setting [1] is 29.1 µM [rising, single point]. Also, the concentration at half-maximal activity (AC50) under setting [2] is 29.1 µM [rising, single point].
As for `COC(=O)CSc1nc(C)cc(C(F)(F)F)c1C#N`, the AC50 under setting [2] was 6.51 µM [rising, single point].
In the case of `O=C(O)c1c2c(nc3ccccc13)/C(=C/c1ccc(OC(F)F)cc1)CCC2`, the cell number change came to 6.3%. The AC50 under setting [2] is 6.51 µM [falling, single point].
Take `COc1ccc(C(=O)COC(=O)Cc2c[nH]c3ccccc23)c(OC)c1`: the cell number change was found to be 60.1%. For the same compound, the AC50 under setting [1] is 8.2 µM [rising, partial curve, poor fit]. Also, under setting [2], the half-maximal activity concentration (AC50) was 6.51 µM [rising, partial curve].
`CCC(=O)c1cn(CC(=O)Nc2ccccc2F)c2ccccc12`: the cell number change was -14.1%.
Turning to `CN(Cc1ccn[nH]1)C(=O)C1CCC(=O)N(Cc2cccc(C(F)(F)F)c2)C1` (configuration not stated), the cell number change is -33.5%. Further, the half-maximal activity concentration (AC50) under setting [1] was 29.1 µM [falling, single point].
As to `Cc1cccc(-n2ncc3c(N4CC(C)CC(C)C4)ncnc32)c1` (configuration not stated), the cell number change is -11%. The half-maximal activity concentration (AC50) under setting [2] was 0.13 µM [rising, full curve, poor fit].
Consider `COc1ccc(-n2sc3ccc(F)cc3c2=O)cc1`, for which the cell number change is -85.2%. The half-maximal activity concentration (AC50) under setting [1] was 4.61 µM [falling, full curve].
On to `CC1(C)CC2(CC(c3ccccc3)c3ccc(O)cc3O2)NC(=S)N1` (configuration not stated), for which the cell number change is -16.1%. The concentration at half-maximal activity (AC50) under setting [2] was 0.092 µM [falling, full curve, poor fit].
Take `COc1cc2cc(CCCOC(=O)CCCC(=O)O)oc(=O)c2cc1OC`: the cell number change is -6.1%. Moreover, under setting [2], the half-maximal activity concentration (AC50) is 0.103 µM [rising, single point].
As for `COc1ccc(OC)c(C2CC(=O)N3CN(c4ccccc4F)CSC3=C2C#N)c1` (configuration not stated), the cell number change is -52.5%. For the same compound, the AC50 under setting [1] is 25.9 µM [falling, partial curve]. Further, the AC50 under setting [2] was 29.1 µM [falling, single point].
On to `Cc1ccc(C(=O)CCc2ccc(N)cc2)cc1`, for which the cell number change was determined as 19.9%. In addition, under setting [2], the AC50 was 0.103 µM [rising, full curve, poor fit].
For `Clc1ccc(C2CC(c3cccs3)n3ncnc3N2)cc1Cl` (configuration not stated), the cell number change is 49.8%. In addition, the half-maximal activity concentration (AC50) under setting [1] was 20.6 µM [rising, single point].
As to `Cc1ccc(C(=O)COC(=O)C2CCC2)cc1`, under setting [1], the AC50 is 1.16 µM [rising, partial curve].
Turning to `O=Cc1ccc(OCCN2CCCC2=O)cc1`, the cell number change was found to be 3.17%. Further, under setting [2], the concentration at half-maximal activity (AC50) is 29.1 µM [rising, single point].
For the compound `Cc1ccc(NS(=O)(=O)c2ccc(Cl)nc2)c(C)c1`, the cell number change worked out at 16.1%.
Consider `CN(C)Cc1cc(CN(C)C)c(O)c(CCc2ccccc2)n1`, for which the cell number change turned out to be 0.806%. The concentration at half-maximal activity (AC50) under setting [2] was 4.61 µM [falling, full curve, poor fit].
In the case of `O=C1C(=Nc2cccc(Cl)c2)CC(c2ccc(Cl)cc2)N1c1cccc(Cl)c1` (configuration not stated), the half-maximal activity concentration (AC50) under setting [1] is 1.16 µM [rising, partial curve] and the AC50 under setting [2] is 2.06 µM [rising, full curve, poor fit].
With `O=C(Cn1cc(C(F)(F)F)ccc1=O)N/N=C/c1ccccc1O`, the cell number change is -10.4%.
Regarding `CN(C)CCCC(=O)c1ccc2c(c1)OCO2`, the cell number change is -24.2%. For the same compound, the AC50 under setting [1] is 0.0206 µM [falling, full curve, poor fit]. Further, the AC50 under setting [2] was 0.92 µM [falling, full curve].
Consider `CN(C)S(=O)(=O)c1ccc(N2CCCC2)c(C(=O)NCc2cccc(C(F)(F)F)c2)c1`, for which the cell number change stood at 7.06%. Besides, under setting [2], the concentration at half-maximal activity (AC50) was 0.13 µM [falling, full curve, poor fit].
On to `Cc1ccc(Cl)cc1N1CCN(C(=O)C2CCN(S(C)(=O)=O)CC2)CC1`, for which the cell number change came out at 47%. The concentration at half-maximal activity (AC50) under setting [1] was 4.11 µM [rising, full curve].
In the case of `Cc1nc([N+](=O)[O-])c(N2CCN(Cc3ccccc3)CC2)n1Cc1ccccc1`, the cell number change is -2.8%.
